According to the supplement of paper PMC10849652:
This is one part of the list.

Protein sequences, listed by entry. Tags and fused reporters are not part of them. Lines headed by an entry give the natural chain unless they say otherwise; changes in a name come on top.
UniProt Q6GMV3: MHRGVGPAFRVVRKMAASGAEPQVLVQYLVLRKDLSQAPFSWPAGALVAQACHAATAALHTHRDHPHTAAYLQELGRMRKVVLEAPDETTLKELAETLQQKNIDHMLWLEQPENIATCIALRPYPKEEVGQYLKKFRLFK
UniProt Q14289, whole entry, looked up: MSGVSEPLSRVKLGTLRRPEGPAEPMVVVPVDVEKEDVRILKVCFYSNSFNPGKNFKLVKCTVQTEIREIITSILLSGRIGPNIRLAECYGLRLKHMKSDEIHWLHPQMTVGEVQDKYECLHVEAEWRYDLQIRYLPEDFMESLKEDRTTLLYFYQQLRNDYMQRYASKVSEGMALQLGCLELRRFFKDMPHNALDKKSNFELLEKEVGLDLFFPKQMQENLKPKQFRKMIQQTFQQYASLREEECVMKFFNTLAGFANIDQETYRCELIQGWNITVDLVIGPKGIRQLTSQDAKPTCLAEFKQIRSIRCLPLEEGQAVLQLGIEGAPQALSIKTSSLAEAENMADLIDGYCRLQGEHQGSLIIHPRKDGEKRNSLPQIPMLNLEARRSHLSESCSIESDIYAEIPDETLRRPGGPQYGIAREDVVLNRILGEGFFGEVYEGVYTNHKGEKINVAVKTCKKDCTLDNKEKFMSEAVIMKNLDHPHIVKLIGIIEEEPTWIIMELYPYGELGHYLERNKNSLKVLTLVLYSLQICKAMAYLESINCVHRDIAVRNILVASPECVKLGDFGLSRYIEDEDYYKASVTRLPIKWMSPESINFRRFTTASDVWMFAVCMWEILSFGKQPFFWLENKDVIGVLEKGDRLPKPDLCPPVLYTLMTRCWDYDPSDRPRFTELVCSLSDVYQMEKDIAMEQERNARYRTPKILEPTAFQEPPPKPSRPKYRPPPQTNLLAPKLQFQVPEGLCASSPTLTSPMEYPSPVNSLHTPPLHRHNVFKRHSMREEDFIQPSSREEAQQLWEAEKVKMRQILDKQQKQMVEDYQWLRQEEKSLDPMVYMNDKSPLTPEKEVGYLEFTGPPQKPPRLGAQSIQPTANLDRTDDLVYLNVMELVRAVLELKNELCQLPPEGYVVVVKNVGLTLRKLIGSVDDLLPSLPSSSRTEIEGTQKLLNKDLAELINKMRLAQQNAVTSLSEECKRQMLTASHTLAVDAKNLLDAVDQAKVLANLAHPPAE
UniProt P06454: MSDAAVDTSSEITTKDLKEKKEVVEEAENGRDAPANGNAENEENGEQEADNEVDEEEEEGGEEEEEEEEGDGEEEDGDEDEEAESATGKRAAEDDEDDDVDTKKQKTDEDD
UniProt Q86TP1: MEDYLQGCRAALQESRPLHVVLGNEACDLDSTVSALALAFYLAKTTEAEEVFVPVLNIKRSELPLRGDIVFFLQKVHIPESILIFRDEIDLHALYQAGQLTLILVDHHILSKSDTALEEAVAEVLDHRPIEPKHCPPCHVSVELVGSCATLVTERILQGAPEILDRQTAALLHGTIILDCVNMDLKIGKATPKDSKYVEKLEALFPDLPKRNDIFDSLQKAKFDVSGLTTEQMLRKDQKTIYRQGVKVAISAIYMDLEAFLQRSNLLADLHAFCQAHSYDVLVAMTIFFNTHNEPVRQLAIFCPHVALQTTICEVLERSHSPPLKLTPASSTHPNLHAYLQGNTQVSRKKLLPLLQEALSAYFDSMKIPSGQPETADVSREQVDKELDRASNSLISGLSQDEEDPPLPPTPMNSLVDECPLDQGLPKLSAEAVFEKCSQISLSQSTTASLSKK
UniProt P15151: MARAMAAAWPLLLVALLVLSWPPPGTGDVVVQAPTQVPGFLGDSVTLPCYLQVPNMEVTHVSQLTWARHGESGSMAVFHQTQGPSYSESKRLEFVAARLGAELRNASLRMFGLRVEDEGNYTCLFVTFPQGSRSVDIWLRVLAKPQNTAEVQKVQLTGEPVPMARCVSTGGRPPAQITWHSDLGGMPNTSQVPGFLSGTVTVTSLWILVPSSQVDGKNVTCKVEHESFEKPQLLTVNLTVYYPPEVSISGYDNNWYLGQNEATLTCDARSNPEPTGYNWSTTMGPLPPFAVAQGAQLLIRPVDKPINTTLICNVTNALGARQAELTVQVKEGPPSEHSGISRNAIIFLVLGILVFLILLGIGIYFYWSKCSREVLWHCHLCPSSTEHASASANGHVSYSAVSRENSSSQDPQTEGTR
UniProt P18433: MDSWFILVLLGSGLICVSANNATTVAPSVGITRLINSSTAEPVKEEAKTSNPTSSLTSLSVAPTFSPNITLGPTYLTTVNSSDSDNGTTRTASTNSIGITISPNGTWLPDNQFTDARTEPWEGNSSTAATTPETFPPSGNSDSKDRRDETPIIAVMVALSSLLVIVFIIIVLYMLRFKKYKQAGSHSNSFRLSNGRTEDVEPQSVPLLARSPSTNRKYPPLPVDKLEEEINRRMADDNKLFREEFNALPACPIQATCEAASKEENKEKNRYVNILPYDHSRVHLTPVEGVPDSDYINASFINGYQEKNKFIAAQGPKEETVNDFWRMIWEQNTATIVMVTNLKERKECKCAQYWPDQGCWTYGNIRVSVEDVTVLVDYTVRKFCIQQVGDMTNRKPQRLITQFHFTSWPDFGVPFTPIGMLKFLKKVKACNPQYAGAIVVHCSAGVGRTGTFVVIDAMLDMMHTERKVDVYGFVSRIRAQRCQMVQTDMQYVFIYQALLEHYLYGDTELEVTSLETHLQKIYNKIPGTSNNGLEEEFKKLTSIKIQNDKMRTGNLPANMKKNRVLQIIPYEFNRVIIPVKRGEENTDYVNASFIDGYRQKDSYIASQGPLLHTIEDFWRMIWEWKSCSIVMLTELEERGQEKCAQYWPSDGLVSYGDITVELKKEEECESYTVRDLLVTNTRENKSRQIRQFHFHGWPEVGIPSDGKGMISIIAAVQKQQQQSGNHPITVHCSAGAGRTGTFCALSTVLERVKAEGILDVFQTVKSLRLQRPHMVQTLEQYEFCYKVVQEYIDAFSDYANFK
UniProt P25787: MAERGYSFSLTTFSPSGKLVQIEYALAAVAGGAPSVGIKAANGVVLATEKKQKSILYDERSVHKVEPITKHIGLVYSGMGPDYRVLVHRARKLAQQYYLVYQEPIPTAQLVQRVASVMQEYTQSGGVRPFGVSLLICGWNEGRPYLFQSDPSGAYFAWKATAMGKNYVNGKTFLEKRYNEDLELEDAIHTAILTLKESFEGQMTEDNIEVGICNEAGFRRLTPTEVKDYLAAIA
UniProt Q5JSZ5: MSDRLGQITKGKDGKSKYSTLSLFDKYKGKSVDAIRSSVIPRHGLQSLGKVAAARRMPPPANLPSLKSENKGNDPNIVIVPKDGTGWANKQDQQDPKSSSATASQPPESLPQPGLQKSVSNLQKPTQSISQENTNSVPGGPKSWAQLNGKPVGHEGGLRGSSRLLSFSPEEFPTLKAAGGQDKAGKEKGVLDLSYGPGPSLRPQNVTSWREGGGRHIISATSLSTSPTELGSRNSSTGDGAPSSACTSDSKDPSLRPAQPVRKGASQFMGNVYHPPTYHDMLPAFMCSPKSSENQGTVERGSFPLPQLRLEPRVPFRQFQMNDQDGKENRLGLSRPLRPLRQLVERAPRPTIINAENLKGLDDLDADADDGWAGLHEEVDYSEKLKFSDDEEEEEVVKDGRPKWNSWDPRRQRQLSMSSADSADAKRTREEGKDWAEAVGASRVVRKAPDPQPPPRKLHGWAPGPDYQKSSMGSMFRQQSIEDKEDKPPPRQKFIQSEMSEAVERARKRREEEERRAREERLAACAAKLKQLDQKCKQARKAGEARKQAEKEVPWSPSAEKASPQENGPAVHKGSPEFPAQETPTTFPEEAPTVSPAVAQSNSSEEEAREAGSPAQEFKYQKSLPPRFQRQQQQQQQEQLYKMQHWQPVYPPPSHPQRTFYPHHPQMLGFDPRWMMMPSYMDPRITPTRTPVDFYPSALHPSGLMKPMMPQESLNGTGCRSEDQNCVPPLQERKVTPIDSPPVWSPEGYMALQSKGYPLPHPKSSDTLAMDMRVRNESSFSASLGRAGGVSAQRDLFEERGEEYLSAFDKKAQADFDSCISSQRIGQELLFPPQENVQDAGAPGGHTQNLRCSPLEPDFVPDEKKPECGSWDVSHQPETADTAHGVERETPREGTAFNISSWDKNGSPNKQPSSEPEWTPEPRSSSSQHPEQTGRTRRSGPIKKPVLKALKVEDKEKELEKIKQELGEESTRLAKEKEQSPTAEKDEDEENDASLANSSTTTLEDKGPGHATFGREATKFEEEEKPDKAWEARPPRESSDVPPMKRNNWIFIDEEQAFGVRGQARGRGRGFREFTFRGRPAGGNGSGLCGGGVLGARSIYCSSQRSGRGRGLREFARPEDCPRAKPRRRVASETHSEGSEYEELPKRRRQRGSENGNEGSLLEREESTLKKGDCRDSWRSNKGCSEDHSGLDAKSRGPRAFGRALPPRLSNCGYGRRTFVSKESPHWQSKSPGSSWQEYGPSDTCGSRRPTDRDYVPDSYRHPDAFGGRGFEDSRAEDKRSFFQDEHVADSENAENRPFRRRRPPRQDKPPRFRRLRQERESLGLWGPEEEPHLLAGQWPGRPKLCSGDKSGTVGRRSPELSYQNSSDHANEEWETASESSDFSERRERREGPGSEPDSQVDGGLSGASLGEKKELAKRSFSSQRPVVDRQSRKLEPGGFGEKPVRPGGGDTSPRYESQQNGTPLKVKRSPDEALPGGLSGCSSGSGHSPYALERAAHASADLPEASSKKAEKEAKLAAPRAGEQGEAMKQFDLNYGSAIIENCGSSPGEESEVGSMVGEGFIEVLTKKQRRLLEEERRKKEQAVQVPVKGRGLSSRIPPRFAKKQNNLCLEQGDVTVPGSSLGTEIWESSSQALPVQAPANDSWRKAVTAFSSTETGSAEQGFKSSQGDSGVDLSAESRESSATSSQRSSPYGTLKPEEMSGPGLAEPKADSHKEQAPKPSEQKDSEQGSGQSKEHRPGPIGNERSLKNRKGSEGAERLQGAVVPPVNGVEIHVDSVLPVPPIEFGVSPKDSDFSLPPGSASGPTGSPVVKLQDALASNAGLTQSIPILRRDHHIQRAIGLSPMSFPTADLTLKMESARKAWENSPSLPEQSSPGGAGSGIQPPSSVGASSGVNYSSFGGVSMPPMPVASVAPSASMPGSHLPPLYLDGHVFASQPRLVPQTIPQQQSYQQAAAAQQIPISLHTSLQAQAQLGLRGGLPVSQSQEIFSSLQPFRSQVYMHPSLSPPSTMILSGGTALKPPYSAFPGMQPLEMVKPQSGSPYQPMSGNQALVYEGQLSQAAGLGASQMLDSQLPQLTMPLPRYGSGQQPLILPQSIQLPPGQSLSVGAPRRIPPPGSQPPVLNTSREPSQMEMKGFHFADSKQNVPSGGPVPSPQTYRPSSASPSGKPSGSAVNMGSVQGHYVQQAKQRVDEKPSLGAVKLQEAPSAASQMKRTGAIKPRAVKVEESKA
UniProt P51665: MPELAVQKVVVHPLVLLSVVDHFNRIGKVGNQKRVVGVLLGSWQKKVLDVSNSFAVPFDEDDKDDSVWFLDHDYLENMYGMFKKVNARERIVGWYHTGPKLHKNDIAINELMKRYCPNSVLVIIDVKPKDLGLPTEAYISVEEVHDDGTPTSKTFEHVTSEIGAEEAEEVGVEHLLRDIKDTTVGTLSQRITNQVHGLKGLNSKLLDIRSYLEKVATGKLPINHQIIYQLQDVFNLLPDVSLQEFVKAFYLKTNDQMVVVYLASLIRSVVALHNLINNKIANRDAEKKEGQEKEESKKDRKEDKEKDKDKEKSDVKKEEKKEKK
UniProt Q7Z6K3: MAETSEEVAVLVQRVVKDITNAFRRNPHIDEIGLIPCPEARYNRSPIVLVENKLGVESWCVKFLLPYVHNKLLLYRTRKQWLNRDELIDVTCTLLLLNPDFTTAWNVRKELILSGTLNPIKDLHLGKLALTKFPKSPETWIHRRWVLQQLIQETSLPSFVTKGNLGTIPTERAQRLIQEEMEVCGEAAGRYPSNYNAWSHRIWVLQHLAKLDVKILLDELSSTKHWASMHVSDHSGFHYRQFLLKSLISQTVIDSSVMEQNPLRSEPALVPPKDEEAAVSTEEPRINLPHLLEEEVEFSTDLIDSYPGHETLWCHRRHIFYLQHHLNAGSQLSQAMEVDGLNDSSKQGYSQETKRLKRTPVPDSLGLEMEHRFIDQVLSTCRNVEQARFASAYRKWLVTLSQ
UniProt Q03393: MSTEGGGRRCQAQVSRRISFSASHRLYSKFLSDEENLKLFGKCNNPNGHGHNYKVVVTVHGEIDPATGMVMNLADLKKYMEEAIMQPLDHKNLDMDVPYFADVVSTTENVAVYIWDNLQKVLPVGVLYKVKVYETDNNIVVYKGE
UniProt Q06323: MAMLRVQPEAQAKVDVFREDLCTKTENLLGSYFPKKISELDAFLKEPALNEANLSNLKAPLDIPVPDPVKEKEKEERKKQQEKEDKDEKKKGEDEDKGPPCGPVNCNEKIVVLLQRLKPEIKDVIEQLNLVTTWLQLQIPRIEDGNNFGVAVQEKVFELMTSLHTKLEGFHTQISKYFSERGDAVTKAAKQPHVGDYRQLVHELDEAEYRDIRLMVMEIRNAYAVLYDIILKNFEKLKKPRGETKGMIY

These targets were tested with C1COCCN1CCN2C3=CC=CC=C3N=C2NC(=O)C4=CC(=CC=C4)[N+](=O)[O-] [IRAK-1-4 Inhibitor I] (assay: log2 fold change, soluble protein after heating vs DMSO (PISA); higher = thermal stabilisation; K562 lysate, 10 uM; active = over 0.2 and 3.5 SD of the protein, either way, in both replicates (recomputed)).
Procedure, shortened: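 Soluble protein was defined as the supernatant remaining after 21,000xg for 90 min, following pooling of heated aliquots and adjustment to 0.5% NP-40 at 4°C. Before that, crude K562 extract at 1 mg/mL protein in PBS pH 7.4 with 1 mM MgCl2 was treated with 10 μM compound for 30 min and heated for 3 min across 48°C-58°C. Quantification used TMTpro 16plex LC-MS/MS with channel sums equalised, and values are log-two fold changes in thermal stability relative to solvent controls from duplicates.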

log2 fold change, inactive:
PSMD14 (UniProt O00487) -0.044
PTBP1 (UniProt P26599) 0.026
PSMB1 (UniProt P20618) 0.008
PTRHD1 (UniProt Q6GMV3) -0.013
PTK2B (UniProt Q14289) 0.077
PURA (UniProt Q00577) -0.009
PTMA (UniProt P06454) -0.037
PUS7 isoform 2 (UniProt Q96PZ0) 0.007
PSAT1 (UniProt Q9Y617) 0.015
PRUNE1 (UniProt Q86TP1) 0.009
PSMG1 (UniProt O95456) 0.011
PVR (UniProt P15151) 0.008
PSMD6 isoform 4 (UniProt Q15008) 0.004
PTPRA (UniProt P18433) 0.017
PTGES2 (UniProt Q9H7Z7) 0.161
PSMA2 (UniProt P25787) 0.017
PTPA isoform 2 (UniProt Q15257) 0.011
PUS10 (UniProt Q3MIT2) 0.003
PRRC2B (UniProt Q5JSZ5) 0.054
PSMC3IP (UniProt Q9P2W1) -0.004
PSMA5 (UniProt P28066) 0.005
PSMC4 (UniProt P43686) 0.003
PTGES3 (UniProt Q15185) 0.022
PTK7 isoform 6 (UniProt Q13308) 0.045
PSMD7 (UniProt P51665) 0.003
PSMB7 (UniProt Q99436) -0.003
PTAR1 (UniProt Q7Z6K3) 0.05
PTS (UniProt Q03393) 0.028
PSRC1 (UniProt Q6PGN9) 0.008
PTRH2 (UniProt Q9Y3E5) 0.018
PRSS21 (UniProt Q9Y6M0) -0.019
PSME1 (UniProt Q06323) 0.009

Reprinted at random: 2 records from the list
log2 fold change, inactive:
PTBP1 (UniProt P26599) 0.026
PSMD14 (UniProt O00487) -0.044
